{"source": "PubChem BioAssay AID1159578 (Peter MacCallum Cancer Centre, 2015)", "assay": "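Knock-downs that alter how fast lymphatic endothelial cells migrate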 (primary screen)", "system": "human lymphatic endothelial cells", "reagents": "siRNA pool against human genes, 40 nM", "time to read-out": "48 h after transfection", "measured": "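Cells stained with dye and imaged after a scratch; covered wound area and nuclei counted, duplicates averaged, migration set against mock wells and turned into a robust z-score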", "scale": "migration robust z-score: higher = faster migration into the scratch; nuclei per well: higher = more cells in the well", "call rule": "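Pools averaging fewer than 3300 nuclei are never called; remaining pools count as changed when migration robust z lies outside -2 to 2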", "meaning of the calls": "active = migration changed; inactive = no migration change, or too few cells", "note": "The whole screen tested about 18,000 reagents; this is a random part of them. About 1,030 of them (5.7%) count as active. 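Inactive calls also include pools with fewer than 3300 nuclei, whose migration was not assessed.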 Raw values vary from plate to plate and are shown uncorrected. Further read-outs or replicates are left out here."}
{"Gene":"PRPF40B","migration robust z-score":-1.16,"migration class with cell-count check":"migration z between -2 and 2; enough cells","nuclei per well, duplicate mean":4351,"Outcome":"inactive"}
{"Gene":"GPR31","migration robust z-score":-0.86,"migration class with cell-count check":"migration z between -2 and 2; enough cells","nuclei per well, duplicate mean":4686,"Outcome":"inactive"}
{"Gene":"TCTA","migration robust z-score":0.47,"migration class with cell-count check":"migration z between -2 and 2; enough cells","nuclei per well, duplicate mean":5362,"Outcome":"inactive"}
{"Gene":"OR4P4","migration robust z-score":0.72,"migration class with cell-count check":"migration z between -2 and 2; enough cells","nuclei per well, duplicate mean":5437,"Outcome":"inactive"}
{"Gene":"PDE1B","migration robust z-score":0.2,"migration class with cell-count check":"migration z between -2 and 2; enough cells","nuclei per well, duplicate mean":6386,"Outcome":"inactive"}
{"Gene":"NTMT1","migration robust z-score":-1.6,"migration class with cell-count check":"migration z between -2 and 2; enough cells","nuclei per well, duplicate mean":6088,"Outcome":"inactive"}
{"Gene":"GPN2","migration robust z-score":-0.59,"migration class with cell-count check":"migration z between -2 and 2; enough cells","nuclei per well, duplicate mean":6166,"Outcome":"inactive"}
{"Gene":"SAP18","migration robust z-score":-1.77,"migration class with cell-count check":"migration z between -2 and 2; enough cells","nuclei per well, duplicate mean":6269,"Outcome":"inactive"}
{"Gene":"CCDC171","migration robust z-score":-0.04,"migration class with cell-count check":"migration z between -2 and 2; enough cells","nuclei per well, duplicate mean":5144,"Outcome":"inactive"}
{"Gene":"OR10K1","migration robust z-score":-0.82,"migration class with cell-count check":"migration z between -2 and 2; enough cells","nuclei per well, duplicate mean":6001,"Outcome":"inactive"}
{"Gene":"RPS4Y2","migration robust z-score":0.17,"migration class with cell-count check":"migration z between -2 and 2; enough cells","nuclei per well, duplicate mean":6340,"Outcome":"inactive"}
{"Gene":"TXN2","migration robust z-score":-0.91,"migration class with cell-count check":"migration z between -2 and 2; enough cells","nuclei per well, duplicate mean":3316,"Outcome":"inactive"}
{"Gene":"SSMEM1","migration robust z-score":-2.16,"migration class with cell-count check":"migration z below -2; enough cells","nuclei per well, duplicate mean":5988,"Outcome":"active"}
{"Gene":"ADGRG5","migration robust z-score":-0.6,"migration class with cell-count check":"migration z between -2 and 2; enough cells","nuclei per well, duplicate mean":5333,"Outcome":"inactive"}
{"Gene":"ADA2","migration robust z-score":0.96,"migration class with cell-count check":"migration z between -2 and 2; enough cells","nuclei per well, duplicate mean":4904,"Outcome":"inactive"}
{"Gene":"CCDC77","migration robust z-score":-0.45,"migration class with cell-count check":"migration z between -2 and 2; enough cells","nuclei per well, duplicate mean":6144,"Outcome":"inactive"}
{"Gene":"HTR4","migration robust z-score":0.9,"migration class with cell-count check":"migration z between -2 and 2; enough cells","nuclei per well, duplicate mean":5686,"Outcome":"inactive"}
{"Gene":"ACYP1","migration robust z-score":-0.6,"migration class with cell-count check":"migration z between -2 and 2; enough cells","nuclei per well, duplicate mean":6750,"Outcome":"inactive"}
{"Gene":"ZNF569","migration robust z-score":1.44,"migration class with cell-count check":"migration z between -2 and 2; enough cells","nuclei per well, duplicate mean":5799,"Outcome":"inactive"}
{"Gene":"NR2F2","migration robust z-score":0.78,"migration class with cell-count check":"migration z between -2 and 2; enough cells","nuclei per well, duplicate mean":5537,"Outcome":"inactive"}
{"Gene":"MIEF2","migration robust z-score":1.48,"migration class with cell-count check":"migration z between -2 and 2; enough cells","nuclei per well, duplicate mean":5046,"Outcome":"inactive"}
